# Results from the supplement of paper PMC8732350.
# Counter-ions that a name gives are not always drawn. ± gives the standard deviation of the averaged measurements. The list shows a part of the results. Repeats in this data set agree poorly, so a single value says little.
# System: A549
# Test: surface PD-L1 immunofluorescence intensity relative to IFN-gamma-only control (ratio); higher = more PD-L1 expression
# Conditions: 10 µM; exposure time 24 h; IFN-gamma 100 ng/mL
row,Compound,surface PD-L1 immunofluorescence intensity
1,CC(C)COCC(CN(Cc1ccccc1)c1ccccc1)N1CCCC1 (centres undefined) [Bepridil hydrochloride],0.959
2,CC(C)COCC(CN(Cc1ccccc1)c1ccccc1)N1CCCC1 (centres undefined) [Bepridil],0.929
3,COc1ccc(-c2nc3cc(C4=NNC(=O)CC4C)ccc3[nH]2)cc1 (centres undefined) [Pimobendan (Vetmedin)],1.12
4,NS(=O)(=O)c1cc2c(cc1Cl)N=CNS2(=O)=O [Chlorothiazide],0.83
5,CNC(=O)[C@@H](Cc1ccccc1)N(C)C(=O)[C@@H](Cc1ccc2ccccc2c1)N(C)C(=O)/C=C/CC(C)(C)N [Tabimorelin],0.938
6,CNS(=O)(=O)Cc1ccc2[nH]cc(CCN(C)C)c2c1 [Sumatriptan succinate],1.03 ± 0.035
7,O=c1c(O)c(-c2ccc(O)c(O)c2)oc2cc(O)ccc12 [Fisetin (Fustel)],1.04
8,COc1cc2ncnc(Oc3cccc(NC(=O)Nc4cc(C(C)(C)C(F)(F)F)on4)c3)c2cc1OC,0.952 ± 0.032
9,CN[C@H](CC(C)C)C(=O)N[C@H]1C(=O)N[C@@H](CC(N)=O)C(=O)N[C@H]2C(=O)N[C@H]3C(=O)N[C@H](C(=O)N[C@H](C(=O)O)c4cc(O)cc(O)c4-c4cc3ccc4O)[C@H](O)c3ccc(c(Cl)c3)Oc3cc2cc(c3O[C@@H]2O[C@H](CO)[C@@H](O)[C@H](O)[C@H]2O[C@H]2C[C@](C)(N)[C@H](O)[C@H](C)O2)Oc2ccc(cc2Cl)[C@H]1O [Vancomycin hydrochloride],1.1
10,"CCS(=O)(=O)N(C)[C@H]1c2cc(C#N)ccc2OC(C)(C)[C@@H]1O [(-)-[3R,4S]-Chromanol 293B]",0.989
11,COc1cc(C(=O)NS(=O)(=O)c2ccccc2C)ccc1Cc1cn(C)c2ccc(NC(=O)OC3CCCC3)cc12 [Zafirlukast],1.04
12,CCc1cncnc1N1CCN(Cc2nc3ccc(C(F)(F)F)cc3[nH]2)CC1,1.04 ± 0.064
13,NS(=O)(=O)c1cc(C(=O)O)c(NCc2ccco2)cc1Cl [Furosemide],1.06
14,CCOc1cc([C@@H](CS(C)(=O)=O)N2C(=O)c3cccc(NC(C)=O)c3C2=O)ccc1OC,1
15,CN(C)C(=O)COC(=O)Cc1ccc(OC(=O)c2ccc(NC(=N)N)cc2)cc1 [Camostat Mesilate (FOY-305)],0.984
16,O=[N+]([O-])c1cccc2c(Br)[nH]nc12 [3-Bromo-7-nitroindazole],1.21
17,CC(Cc1ccccc1)(NC(=O)CN)c1ccccc1 (centres undefined) [Remacemide hydrochloride],0.977
18,N=C(N)NC(=O)c1nc(Cl)c(N)nc1N [Amiloride hydrochloride],1.06
19,N=C(N)NC(=O)c1nc(Cl)c(N)nc1N [Amiloride hydrochloride dihydrate],0.823

# Look-ups from the results shown:
# Value of CCc1cncnc1N1CCN(Cc2nc3ccc(C(F)(F)F)cc3[nH]2)CC1 under surface PD-L1 immunofluorescence intensity: 1.04 ± 0.064
# Value of NS(=O)(=O)c1cc2c(cc1Cl)N=CNS2(=O)=O [Chlorothiazide] under surface PD-L1 immunofluorescence intensity: 0.83
